Common to all, as to assay: affinity purification with mass spectrometry; SAMHD1-HA WT, K11A, Δ2–109 or empty vector transfected into HEK293T; anti-HA affinity matrix; trypsin digest, LC-MS/MS (Orbitrap Velos Pro), MaxQuant label-free quantitation
The target in one assay is SAMHD1 K11A-HA (human) (UniProt Q9Y3Z3).
The next assay addresses SAMHD1 Δ2–109-HA (human) (UniProt Q9Y3Z3).
Assay [1] concerns the target wild-type SAMHD1-HA (sterile alpha motif and HD domain-containing protein-1) (human) (UniProt Q9Y3Z3).

Chains of the proteins cited; added tags and fusions are not shown. Lines headed by an entry give the natural chain unless they say otherwise; changes in a name come on top. A line that says so, or that is headed by a name, gives the form on record, which may keep a tag or linker.
UniProt Q9Y3Z3: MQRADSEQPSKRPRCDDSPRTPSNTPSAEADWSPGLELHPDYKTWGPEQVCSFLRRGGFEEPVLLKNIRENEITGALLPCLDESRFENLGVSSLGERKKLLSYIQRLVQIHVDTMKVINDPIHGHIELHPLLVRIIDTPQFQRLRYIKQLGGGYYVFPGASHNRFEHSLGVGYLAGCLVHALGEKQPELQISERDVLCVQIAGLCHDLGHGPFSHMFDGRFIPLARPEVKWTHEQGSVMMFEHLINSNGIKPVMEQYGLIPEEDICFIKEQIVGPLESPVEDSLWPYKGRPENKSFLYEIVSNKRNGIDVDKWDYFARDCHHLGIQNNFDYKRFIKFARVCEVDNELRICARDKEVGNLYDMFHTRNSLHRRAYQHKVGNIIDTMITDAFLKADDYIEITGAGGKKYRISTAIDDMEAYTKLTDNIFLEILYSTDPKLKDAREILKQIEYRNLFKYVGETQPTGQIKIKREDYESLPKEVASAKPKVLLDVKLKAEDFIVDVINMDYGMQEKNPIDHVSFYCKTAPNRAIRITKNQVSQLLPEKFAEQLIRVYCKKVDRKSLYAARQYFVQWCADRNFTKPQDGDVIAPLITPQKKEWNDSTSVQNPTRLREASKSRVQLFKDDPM
SAMHD1 Δ2–109-HA (Q9Y3Z3, form named): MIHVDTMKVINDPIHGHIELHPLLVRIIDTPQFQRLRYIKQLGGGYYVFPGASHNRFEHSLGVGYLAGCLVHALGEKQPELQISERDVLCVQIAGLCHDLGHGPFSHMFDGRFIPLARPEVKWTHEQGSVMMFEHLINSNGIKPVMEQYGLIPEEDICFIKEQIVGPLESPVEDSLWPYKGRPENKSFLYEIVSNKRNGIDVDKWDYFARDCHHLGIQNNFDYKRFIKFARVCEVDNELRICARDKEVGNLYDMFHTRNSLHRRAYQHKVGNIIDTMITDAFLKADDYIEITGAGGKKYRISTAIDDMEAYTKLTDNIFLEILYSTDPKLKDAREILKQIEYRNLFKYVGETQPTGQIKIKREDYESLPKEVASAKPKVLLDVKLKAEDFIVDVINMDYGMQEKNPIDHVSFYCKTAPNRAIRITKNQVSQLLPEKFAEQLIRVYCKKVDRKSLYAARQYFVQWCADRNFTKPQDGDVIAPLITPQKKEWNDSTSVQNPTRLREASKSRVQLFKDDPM
UniProt P62316: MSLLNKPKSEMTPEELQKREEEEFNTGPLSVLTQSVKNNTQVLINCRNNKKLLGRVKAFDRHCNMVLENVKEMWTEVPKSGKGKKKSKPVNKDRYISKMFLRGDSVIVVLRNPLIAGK
UniProt Q6UXN9: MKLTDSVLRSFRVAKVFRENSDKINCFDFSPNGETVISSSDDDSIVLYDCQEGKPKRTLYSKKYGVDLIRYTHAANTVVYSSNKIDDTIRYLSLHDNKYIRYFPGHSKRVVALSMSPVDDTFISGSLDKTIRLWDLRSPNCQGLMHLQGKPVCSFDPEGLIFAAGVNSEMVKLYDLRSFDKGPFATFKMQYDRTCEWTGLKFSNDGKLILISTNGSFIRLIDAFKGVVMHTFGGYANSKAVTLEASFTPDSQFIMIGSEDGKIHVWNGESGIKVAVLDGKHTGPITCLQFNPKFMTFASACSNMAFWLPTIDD
UniProt Q14974: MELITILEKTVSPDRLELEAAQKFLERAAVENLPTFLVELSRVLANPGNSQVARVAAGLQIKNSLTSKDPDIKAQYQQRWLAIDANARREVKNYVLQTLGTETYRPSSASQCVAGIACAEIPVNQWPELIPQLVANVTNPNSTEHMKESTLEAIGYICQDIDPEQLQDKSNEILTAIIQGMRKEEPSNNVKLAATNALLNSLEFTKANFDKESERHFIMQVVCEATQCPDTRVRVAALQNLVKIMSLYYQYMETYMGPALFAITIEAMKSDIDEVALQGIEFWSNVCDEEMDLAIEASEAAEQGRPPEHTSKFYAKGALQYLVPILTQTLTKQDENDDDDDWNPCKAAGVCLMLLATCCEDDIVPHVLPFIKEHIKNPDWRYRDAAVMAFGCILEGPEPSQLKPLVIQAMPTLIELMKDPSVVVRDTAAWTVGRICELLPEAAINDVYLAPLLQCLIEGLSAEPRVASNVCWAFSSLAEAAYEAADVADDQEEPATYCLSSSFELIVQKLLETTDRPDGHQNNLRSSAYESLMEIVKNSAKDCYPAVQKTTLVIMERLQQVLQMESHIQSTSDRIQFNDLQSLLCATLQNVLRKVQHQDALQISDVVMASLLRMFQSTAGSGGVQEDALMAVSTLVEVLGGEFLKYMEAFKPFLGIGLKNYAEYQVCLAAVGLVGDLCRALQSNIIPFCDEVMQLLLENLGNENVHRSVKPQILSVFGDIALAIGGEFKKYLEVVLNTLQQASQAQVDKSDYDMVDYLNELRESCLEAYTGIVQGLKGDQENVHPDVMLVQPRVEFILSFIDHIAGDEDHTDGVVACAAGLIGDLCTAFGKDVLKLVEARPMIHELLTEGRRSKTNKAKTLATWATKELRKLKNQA

Experimental findings from PMC3708934 are described below.

Results are given in words; binding and its absence hold for the method and conditions named. In cells and extracts the contact can be indirect. A yes stands for co-enrichment or nearness to the bait. Other partners may have been found. For part of these data: No binding means not detected with the bait.

Regarding SNRPD2 (from UniProt P62316 1-118), the figures for the binding result (with SAMHD1 K11A-HA (human); in the assay with SAMHD1 Δ2–109-HA (human); in assay [1]) were “no binding”, “binds” and “binds”, respectively.
Take WDR82 (from UniProt Q6UXN9 1-313): the figures for the binding result (with SAMHD1 K11A-HA (human); in the assay with SAMHD1 Δ2–109-HA (human); in assay [1]) were “no binding”, “binds” and “binds”, respectively.
As to “karyopherin-β1 (KPNB1) (from UniProt Q14974 1-876)”, the binding result (with SAMHD1 K11A-HA (human); with SAMHD1 Δ2–109-HA (human); in assay [1]) was “binds” each time.
